{
  "sequences": {"note": "The chains behind the UniProt entries cited, without tags or fusion partners. Where a name states a change or a piece, a line headed by the entry shows the natural chain unless it says otherwise.", "UniProt P16234": "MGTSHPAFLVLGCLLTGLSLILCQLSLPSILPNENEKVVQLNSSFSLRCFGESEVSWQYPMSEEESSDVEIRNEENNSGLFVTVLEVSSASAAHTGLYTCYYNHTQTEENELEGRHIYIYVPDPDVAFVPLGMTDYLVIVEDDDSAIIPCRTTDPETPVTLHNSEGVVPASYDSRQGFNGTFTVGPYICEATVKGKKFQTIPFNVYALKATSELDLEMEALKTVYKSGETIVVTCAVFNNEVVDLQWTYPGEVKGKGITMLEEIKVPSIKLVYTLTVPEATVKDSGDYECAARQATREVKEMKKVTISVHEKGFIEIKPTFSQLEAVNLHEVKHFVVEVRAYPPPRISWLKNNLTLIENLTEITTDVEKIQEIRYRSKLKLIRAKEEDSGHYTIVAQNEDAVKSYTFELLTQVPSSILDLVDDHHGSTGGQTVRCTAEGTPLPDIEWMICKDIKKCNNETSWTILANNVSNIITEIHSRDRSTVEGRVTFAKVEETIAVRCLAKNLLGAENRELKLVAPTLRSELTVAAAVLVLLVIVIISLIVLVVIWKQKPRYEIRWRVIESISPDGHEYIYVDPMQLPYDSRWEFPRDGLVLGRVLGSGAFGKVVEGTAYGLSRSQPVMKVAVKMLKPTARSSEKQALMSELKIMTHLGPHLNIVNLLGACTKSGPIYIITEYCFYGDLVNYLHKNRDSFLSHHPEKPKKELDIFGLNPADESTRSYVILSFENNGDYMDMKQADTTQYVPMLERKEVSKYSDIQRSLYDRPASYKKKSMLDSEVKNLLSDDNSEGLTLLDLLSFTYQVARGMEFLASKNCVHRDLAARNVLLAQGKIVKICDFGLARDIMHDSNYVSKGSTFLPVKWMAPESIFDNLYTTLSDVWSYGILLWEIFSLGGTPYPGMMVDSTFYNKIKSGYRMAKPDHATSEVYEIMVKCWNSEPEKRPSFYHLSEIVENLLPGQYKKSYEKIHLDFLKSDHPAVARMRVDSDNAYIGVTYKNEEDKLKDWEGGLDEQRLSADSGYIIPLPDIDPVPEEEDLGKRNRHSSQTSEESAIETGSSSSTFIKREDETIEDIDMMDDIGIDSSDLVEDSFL"},
  "source": "paper PMC6063412",
  "biological_target": "recombinant PDGFRα protein (UniProt P16234)",
  "experiment": "ELISA; 96-well plate coated with recombinant PDGFRα protein (1 μg/ml in 100 mM NaHCO3, 4°C overnight); PDGF ligands applied; quality control of the ligands; both purified",
  "note": "No constants are given. Whether binding was seen depends on the method and setting. A result given as binding can be weak or reduced; the word gives no strength.",
  "data": [
    {"substance": "PDGF-BB (from UniProt P01127) (ligand)", "values": [
      {"measurement": "binding", "value": "binds"}
    ]},
    {"substance": "PDGF-AA (from UniProt P04085) (ligand)", "values": [
      {"measurement": "binding", "value": "binds"}
    ]},
    {"substance": "recombinant human PDGF-CC core domain protein (activated PDGF-CC, growth factor domain) (from UniProt Q9NRA1) (ligand)", "values": [
      {"measurement": "binding", "value": "binds"}
    ]}
  ]
}
